# Data from paper PMC10185773, “Interactions of the protein tyrosine phosphatase PTPN3 with viral and cellular partners through its PDZ domain: insights into structural determinants and phosphatase activity” (Frontiers in Molecular Biosciences, 2023).
# Chains of the proteins cited; added tags and fusions are not shown. Lines headed by an entry give the natural chain unless they say otherwise; changes in a name come on top.
# UniProt P26045: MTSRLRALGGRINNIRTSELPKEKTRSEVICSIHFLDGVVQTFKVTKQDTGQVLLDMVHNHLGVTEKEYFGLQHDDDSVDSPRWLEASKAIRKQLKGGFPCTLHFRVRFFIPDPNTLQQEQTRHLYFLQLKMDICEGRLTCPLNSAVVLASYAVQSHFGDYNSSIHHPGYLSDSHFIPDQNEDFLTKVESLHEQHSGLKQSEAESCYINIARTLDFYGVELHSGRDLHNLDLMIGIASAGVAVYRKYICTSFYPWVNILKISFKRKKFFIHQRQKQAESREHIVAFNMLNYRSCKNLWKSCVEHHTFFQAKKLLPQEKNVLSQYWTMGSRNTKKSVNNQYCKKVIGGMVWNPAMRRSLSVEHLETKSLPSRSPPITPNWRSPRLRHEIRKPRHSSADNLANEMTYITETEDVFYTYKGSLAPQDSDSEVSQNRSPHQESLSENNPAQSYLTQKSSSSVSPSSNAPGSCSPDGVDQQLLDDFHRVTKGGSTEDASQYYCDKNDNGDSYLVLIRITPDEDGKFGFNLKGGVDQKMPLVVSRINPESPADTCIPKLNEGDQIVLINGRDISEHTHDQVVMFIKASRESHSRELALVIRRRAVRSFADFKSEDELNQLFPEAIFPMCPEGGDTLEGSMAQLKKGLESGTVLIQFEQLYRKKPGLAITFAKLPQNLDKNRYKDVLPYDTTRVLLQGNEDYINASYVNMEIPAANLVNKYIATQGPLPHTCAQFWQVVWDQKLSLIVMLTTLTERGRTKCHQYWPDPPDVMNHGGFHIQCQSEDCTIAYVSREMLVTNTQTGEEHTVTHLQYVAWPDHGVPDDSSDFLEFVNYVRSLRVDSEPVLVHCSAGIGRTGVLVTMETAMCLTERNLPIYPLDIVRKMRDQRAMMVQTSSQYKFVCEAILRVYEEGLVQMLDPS
# B1: PBM-TACE peptide (last C-terminal 12 residues of TACE) (peptide)
# peptide: RQNRVDSKETEC
# Target: PTPN3 PDZ domain (PTPN3-PDZ) (human) (UniProt P26045)
# Assay: crystal structure; co-crystallisation, PTPN3-PDZ and peptide mixed 1:2 in 20 mM HEPES pH 8, 150 mM NaCl, 0.5 mM TCEP; sitting drop, 18°C, 20% PEG 3350; both purified
binder,measurement,value
B1,binding,binds

# No constants are given. Whether binding was seen depends on the method and setting. A result given as binding can be weak or reduced; the word gives no strength.
